Some of the results follow.
Compound: CC1Cc2ccccc2N1C(=O)C1CCCN(C1)C(=O)CCl (mixture of isomers) [TRIM25 ligand 11 (diastereomer mixture)]
Experiment: probe-labelled cysteine peptide fold change vs DMSO (competition) (log2 fold change); higher = less target engagement (more negative = stronger competition)
Details: THP-1, incubation time: 4 h
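Further: competitive chemoproteomic profiling in live THP-1 cells with an iodoacetamide desthiobiotin (IA-DTB) probe, comparing probe-labelled peptide intensities in compound-treated cells against DMSO-treated controls.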

Amino acid sequences for entries named in this document (tags omitted). A change or cut given only in a name is not applied to a line headed by its entry.
UniProt Q96ST3: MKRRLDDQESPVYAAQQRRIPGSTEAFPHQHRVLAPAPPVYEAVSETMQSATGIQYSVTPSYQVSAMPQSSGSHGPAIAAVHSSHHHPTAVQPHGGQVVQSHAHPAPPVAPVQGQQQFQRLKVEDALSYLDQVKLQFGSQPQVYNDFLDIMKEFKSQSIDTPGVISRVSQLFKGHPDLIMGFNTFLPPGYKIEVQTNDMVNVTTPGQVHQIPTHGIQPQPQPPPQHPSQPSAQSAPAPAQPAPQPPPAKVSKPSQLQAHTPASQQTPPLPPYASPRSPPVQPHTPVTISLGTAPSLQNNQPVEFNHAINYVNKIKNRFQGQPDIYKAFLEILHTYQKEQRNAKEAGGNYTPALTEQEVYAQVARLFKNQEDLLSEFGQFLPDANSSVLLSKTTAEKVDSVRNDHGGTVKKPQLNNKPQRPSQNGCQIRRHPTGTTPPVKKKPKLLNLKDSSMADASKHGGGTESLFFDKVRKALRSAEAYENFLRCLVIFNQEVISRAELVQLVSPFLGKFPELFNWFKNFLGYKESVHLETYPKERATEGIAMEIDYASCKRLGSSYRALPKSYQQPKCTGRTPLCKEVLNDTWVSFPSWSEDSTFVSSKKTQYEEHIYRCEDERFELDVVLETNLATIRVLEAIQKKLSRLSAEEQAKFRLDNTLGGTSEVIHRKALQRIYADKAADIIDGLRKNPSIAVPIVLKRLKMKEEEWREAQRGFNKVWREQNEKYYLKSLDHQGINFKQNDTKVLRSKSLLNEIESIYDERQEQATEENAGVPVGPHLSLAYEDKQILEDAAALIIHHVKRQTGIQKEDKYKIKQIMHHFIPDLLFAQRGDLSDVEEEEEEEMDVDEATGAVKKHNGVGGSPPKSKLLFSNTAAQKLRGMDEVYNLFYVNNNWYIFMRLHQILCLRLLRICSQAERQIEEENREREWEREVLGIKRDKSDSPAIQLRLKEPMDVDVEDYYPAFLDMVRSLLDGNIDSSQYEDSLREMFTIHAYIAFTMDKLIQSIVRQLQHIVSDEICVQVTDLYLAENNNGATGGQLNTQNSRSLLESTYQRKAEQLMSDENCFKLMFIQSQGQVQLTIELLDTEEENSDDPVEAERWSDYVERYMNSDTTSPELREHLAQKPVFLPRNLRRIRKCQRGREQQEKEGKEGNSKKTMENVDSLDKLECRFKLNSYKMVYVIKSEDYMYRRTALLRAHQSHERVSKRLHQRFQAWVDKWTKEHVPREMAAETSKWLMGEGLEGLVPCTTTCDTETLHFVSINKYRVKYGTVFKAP
UniProt Q96ES7: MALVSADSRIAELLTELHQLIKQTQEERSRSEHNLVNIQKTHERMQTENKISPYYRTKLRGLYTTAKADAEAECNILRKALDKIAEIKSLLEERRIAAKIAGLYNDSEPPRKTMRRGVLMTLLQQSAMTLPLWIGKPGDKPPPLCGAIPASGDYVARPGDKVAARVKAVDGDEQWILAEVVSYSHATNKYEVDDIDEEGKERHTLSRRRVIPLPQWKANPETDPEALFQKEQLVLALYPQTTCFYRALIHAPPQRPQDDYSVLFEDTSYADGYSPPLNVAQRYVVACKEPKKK
UniProt Q8NEM2: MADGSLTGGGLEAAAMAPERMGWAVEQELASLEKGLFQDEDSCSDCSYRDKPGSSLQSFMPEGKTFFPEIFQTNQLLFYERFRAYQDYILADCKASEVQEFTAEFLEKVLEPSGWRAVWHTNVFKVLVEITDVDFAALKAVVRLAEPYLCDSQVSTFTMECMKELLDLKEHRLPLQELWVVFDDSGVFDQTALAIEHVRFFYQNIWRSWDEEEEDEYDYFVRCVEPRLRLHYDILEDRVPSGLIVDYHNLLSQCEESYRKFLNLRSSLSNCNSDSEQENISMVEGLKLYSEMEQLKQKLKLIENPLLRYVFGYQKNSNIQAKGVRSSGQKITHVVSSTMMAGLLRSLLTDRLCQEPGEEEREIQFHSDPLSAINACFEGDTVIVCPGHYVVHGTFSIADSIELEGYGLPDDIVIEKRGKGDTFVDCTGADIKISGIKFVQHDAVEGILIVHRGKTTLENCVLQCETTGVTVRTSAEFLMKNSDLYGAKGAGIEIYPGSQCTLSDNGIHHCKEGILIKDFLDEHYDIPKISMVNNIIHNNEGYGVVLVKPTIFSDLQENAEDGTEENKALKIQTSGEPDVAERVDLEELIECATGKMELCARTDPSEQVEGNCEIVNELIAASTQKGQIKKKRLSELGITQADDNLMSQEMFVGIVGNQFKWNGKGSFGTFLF
UniProt Q14141: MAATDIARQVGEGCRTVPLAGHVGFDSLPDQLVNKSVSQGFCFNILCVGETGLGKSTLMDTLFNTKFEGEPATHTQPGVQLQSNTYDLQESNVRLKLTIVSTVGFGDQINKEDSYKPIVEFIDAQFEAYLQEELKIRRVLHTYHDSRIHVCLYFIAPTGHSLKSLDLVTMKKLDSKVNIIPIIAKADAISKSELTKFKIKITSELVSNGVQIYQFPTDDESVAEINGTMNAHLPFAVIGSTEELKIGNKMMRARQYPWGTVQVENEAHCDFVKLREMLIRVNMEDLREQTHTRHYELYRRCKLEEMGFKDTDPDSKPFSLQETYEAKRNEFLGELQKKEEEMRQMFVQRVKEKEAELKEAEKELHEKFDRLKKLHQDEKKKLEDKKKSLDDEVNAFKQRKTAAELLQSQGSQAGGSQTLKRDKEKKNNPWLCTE
UniProt Q9H788: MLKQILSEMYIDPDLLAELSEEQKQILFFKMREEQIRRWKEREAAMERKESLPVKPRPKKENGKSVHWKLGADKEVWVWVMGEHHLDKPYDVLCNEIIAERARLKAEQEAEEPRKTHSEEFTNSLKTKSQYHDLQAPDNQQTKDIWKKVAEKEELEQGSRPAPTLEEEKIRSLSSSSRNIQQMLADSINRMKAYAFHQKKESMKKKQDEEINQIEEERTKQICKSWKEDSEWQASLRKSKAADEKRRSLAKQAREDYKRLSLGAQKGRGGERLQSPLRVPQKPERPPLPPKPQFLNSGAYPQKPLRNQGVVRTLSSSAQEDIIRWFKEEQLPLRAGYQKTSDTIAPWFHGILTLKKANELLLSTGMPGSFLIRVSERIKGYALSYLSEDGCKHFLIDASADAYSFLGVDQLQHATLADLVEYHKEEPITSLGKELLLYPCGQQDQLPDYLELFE
UniProt O15427: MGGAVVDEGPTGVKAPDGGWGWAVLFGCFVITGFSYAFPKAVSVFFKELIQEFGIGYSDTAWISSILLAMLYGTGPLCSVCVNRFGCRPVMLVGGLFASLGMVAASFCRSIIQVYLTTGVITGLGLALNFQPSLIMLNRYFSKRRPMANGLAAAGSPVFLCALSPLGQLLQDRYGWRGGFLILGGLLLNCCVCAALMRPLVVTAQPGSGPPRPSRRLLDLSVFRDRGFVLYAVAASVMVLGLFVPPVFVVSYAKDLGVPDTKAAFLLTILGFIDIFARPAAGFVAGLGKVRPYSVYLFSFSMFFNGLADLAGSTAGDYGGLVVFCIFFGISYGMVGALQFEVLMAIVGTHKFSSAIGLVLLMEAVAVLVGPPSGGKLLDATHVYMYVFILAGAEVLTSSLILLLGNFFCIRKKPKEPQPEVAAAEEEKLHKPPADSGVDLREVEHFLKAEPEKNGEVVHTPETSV
UniProt Q15637: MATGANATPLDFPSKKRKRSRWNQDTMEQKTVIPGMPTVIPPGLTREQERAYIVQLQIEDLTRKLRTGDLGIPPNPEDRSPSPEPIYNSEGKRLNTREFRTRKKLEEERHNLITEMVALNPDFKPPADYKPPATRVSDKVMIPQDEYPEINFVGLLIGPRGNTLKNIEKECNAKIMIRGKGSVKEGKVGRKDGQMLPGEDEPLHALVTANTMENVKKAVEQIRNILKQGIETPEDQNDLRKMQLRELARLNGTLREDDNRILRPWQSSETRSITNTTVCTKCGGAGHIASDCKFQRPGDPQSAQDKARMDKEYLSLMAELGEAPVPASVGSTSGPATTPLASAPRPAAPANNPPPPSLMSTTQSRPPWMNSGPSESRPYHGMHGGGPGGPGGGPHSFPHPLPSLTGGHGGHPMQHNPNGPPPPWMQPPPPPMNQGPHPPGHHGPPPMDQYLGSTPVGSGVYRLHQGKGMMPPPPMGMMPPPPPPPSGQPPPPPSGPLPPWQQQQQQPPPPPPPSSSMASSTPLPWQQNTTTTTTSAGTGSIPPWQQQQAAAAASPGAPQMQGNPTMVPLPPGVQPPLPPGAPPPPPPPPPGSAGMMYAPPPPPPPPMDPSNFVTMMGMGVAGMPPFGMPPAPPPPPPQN
UniProt Q9UJS0: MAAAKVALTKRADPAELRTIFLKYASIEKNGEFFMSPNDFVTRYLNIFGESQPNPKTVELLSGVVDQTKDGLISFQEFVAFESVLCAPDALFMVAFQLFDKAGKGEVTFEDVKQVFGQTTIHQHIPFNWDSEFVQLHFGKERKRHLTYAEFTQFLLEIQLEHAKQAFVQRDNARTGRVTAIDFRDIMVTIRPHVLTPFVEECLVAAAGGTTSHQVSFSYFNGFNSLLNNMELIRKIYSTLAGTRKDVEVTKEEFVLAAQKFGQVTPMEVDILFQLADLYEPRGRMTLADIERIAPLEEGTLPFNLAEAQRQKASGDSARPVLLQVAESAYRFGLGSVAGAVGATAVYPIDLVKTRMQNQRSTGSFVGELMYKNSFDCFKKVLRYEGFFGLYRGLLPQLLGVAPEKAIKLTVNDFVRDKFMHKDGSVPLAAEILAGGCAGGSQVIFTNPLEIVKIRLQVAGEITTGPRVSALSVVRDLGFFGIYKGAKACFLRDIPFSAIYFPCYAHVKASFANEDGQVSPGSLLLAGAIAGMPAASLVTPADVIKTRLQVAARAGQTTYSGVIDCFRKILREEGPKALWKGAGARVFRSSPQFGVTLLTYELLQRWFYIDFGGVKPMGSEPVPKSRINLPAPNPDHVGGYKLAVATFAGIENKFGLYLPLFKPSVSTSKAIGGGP
UniProt Q7L8J4: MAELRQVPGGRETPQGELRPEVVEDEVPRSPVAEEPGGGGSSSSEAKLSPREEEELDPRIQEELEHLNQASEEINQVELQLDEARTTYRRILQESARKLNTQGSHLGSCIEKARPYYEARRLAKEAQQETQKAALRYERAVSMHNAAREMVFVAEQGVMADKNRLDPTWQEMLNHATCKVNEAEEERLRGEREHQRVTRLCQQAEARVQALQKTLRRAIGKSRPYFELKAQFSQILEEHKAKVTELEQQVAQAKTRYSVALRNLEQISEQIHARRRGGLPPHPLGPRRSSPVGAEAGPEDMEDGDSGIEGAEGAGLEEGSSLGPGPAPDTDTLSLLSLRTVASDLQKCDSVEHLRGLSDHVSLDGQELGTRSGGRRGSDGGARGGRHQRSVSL
UniProt Q15393: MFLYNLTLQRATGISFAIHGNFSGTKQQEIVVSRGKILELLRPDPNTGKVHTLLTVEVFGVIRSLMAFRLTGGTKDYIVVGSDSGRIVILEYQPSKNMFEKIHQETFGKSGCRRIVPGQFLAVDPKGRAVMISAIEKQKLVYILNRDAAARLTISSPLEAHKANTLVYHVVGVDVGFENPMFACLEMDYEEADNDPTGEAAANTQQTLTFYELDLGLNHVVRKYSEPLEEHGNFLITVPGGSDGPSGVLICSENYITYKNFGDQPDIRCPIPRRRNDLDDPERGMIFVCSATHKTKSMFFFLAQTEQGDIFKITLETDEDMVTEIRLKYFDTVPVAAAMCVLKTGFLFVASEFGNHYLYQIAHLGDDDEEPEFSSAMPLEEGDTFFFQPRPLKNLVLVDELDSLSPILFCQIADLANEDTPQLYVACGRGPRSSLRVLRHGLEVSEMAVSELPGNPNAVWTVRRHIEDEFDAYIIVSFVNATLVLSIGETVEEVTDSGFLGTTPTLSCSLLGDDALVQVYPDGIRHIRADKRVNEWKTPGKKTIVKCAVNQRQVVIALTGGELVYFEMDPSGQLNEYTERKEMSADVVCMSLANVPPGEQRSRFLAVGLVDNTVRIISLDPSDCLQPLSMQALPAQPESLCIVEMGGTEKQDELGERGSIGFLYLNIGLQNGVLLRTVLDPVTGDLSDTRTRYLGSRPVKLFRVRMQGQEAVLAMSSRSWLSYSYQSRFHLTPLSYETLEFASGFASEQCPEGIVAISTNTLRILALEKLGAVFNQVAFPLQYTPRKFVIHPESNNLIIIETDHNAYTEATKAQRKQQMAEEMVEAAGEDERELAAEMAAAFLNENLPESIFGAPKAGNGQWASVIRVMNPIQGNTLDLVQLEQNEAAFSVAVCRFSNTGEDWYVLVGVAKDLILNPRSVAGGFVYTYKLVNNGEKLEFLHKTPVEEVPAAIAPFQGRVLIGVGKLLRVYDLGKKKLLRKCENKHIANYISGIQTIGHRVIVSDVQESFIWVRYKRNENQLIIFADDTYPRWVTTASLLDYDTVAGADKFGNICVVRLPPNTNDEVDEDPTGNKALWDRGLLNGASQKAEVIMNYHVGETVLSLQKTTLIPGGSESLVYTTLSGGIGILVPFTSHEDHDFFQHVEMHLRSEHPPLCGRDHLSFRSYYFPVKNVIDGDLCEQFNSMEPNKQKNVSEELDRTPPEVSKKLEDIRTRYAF

Target	probe-labelled cysteine peptide fold change (10 µM)	probe-labelled cysteine peptide fold change (50 µM)
SIN3A_Q96ST3_551_ATEGIAMEIDYASCK (UniProt Q96ST3)	0.0337	0.072
SGF29_Q96ES7_74_ADAEAECNILR (UniProt Q96ES7)	0.00272	0.133
SFMBT2_Q5VUG0_796_CPPTKPEGTEDTKQEEEERLVLESNPLEWTVTDVVR (UniProt Q5VUG0)	-0.043	-0.0391
SHCBP1_Q8NEM2_591_VDLEELIECATGK (UniProt Q8NEM2)	0.088	-0.228
SKIV2L_Q15477_50_AVELGCTGHWELLNLPGAPESSLPHGLPPCAPDLQQEAEQLFLSSPAWLPLHGVEHSAR (UniProt Q15477)	0.361	0.374
SEPT6_Q14141_47_SVSQGFCFNILCVGETGLGK (UniProt Q14141)	0.436	0.185
SLC1A4_P43007_500_VEAIPNCK (UniProt P43007)	0.0381	-0.0122
SH2D4A_Q9H788_94_EVWVWVMGEHHLDKPYDVLCNEIIAER (UniProt Q9H788)	-0.179	-0.0992
SINHCAF_Q9NP50_41_DFQSCFGLHETR (UniProt Q9NP50)	0.000469	-0.0831
SHMT1_P34896_248_IADENGAYLMADMAHISGLVAAGVVPSPFEHCHVVTTTTHK (UniProt P34896)	-0.159	-0.203
SHKBP1_Q8TBC3_550_SVDGSPTTAFTVLECEGSR (UniProt Q8TBC3)	0.0694	0.0857
SLC16A3_O15427_161_RPMANGLAAAGSPVFLCALSPLGQLLQDR (UniProt O15427)	-0.142	-0.136
SLC25A36_Q96CQ1_239_TCATTIAYPHEVVR (UniProt Q96CQ1)	0.0447	0.1
SF1_Q15637_282+292_CGGAGHIASDCK (UniProt Q15637)	-0.0927	-0.0122
SF3A3_Q12874_411_LHGLNINYNCEICGNYTYR (UniProt Q12874)	0.189	0.382
SLC25A4_P12235_160_EFHGLGDCIIK (UniProt P12235)	-0.0707	0.0121
SIVA1_O15304_62_LLFLGAQAYLDHVWDEGCAVVHLPESPKPGPTGAPR (UniProt O15304)	0.107	0.179
SEPT7_Q16181_280_QYPWGVAEVENGEHCDFTILR (UniProt Q16181)	-0.0336	0.0042
SETX_Q7Z333_1416_CMPSEPETIK (UniProt Q7Z333)	-0.13	-0.585

Target	probe-labelled cysteine peptide fold change (10 µM)	probe-labelled cysteine peptide fold change (50 µM)
SLC25A13_Q9UJS0_503_DIPFSAIYFPCYAHVK (UniProt Q9UJS0)	0.0169	0.0755
SEPT6_Q14141_14_QVGEGCR (UniProt Q14141)	-0.0601	-0.0828
SGTA_O43765_153_AICIDPAYSK (UniProt O43765)	0.0521	0.0381
SH3BP5L_Q7L8J4_178_NRLDPTWQEMLNHATCK (UniProt Q7L8J4)	-0.0336	-0.0872
SHC1_P29353_169_YMGCVEVLQSMR (UniProt P29353)	0.0199	0.168
SF3B3_Q15393_289_NDLDDPERGMIFVCSATHK (UniProt Q15393)	-0.0511	0.176
SKIV2L_Q15477_877_VFTTLVLCDK (UniProt Q15477)	0.107	0.137
SF3A2_Q15428_59_LCLTLHNNEGSYLAHTQGK (UniProt Q15428)	0.00986	0.0211
SF3B2_Q13435_661_IPGLNSPIPESCSFGYHAGGWGKPPVDETGK (UniProt Q13435)	0.209	-0.0619
SERPINB6_P35237_100_SCDFLSSFR (UniProt P35237)	0.00189	-0.0617
SKA3_Q8IX90_20_SLASTLDCETAR (UniProt Q8IX90)	0.223	0.0824
SEPT6_Q14141_42+47_SVSQGFCFNILCVGETGLGK (UniProt Q14141)	0.225	0.0658
SF1_Q15637_282_CGGAGHIASDCK (UniProt Q15637)	-0.0834	0.023
SIMC1_Q8NDZ2_603_QHLQQSIANMVLSCDK (UniProt Q8NDZ2)	-0.00847	-0.0408
SF3B3_Q15393_589_EMSADVVCMSLANVPPGEQR (UniProt Q15393)	-0.0403	-0.0588
SLC25A10_Q9UBX3_69_TDGILALYSGLSASLCR (UniProt Q9UBX3)	0.0966	0.615
SHMT1_P34896_335_VYQHQVVANCR (UniProt P34896)	0.0178	0.112
SLC25A12_O75746_563_AGQTTYSGVIDCFRK (UniProt O75746)	-0.194	-0.0537

Source: the supplement of paper PMC12067093, “Discovery and optimisation of a covalent ligand for TRIM25 and its application to targeted protein ubiquitination” (Chemical Science, 2025)
